PubChem BioAssay AID2551 (National Center for Advancing Translational Sciences (NCATS), 2010)
“And” between values parts separate entries of the source, which are not always exact repeats. Equal values may be shown once. In all, about 310,000 compounds went through this assay and about 17,000 (5.5%) were called active. Inconclusive means that the source gave no clear call. Such entries were picked first, then a sample of the others. Calls follow the shape of the dose curve; as a rule, active = well fitted inhibition curve with a large enough effect; inconclusive = small, poorly fitted or top-dose-only effect, or effect the other way; inactive = no such curve, though single readings can be large or run the other way. Where the call is inconclusive, the potency comes from a doubtful curve fit.

Chains of the proteins cited; added tags and fusions are not shown. Lines headed by an entry give the natural chain unless they say otherwise; changes in a name come on top.
UniProt P51450: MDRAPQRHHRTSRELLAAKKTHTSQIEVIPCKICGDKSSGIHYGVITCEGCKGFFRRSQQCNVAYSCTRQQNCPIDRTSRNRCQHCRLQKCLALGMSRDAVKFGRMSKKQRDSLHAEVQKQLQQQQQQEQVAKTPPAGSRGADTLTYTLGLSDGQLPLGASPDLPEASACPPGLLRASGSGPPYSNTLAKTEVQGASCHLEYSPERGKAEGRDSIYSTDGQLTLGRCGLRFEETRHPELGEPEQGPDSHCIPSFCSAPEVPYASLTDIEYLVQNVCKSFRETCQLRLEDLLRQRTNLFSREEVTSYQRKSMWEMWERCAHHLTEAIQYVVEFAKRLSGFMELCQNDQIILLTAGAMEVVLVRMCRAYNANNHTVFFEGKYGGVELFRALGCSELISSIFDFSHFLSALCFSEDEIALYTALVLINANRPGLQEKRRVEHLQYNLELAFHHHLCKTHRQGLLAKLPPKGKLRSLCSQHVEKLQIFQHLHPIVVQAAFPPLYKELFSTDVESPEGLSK

Biological target: Nuclear receptor ROR-gamma (Mus musculus) (UniProt P51450)
Experiment: qHTS for inhibitors of ROR gamma transcriptional activity; also: nearly all actives have a fitted effect of over 60% in size
Conditions: Drosophila S2 Gal4-RORgamma UAS-luciferase reporter, 20 h; activity change, negative = inhibition: at 53.6 µM (top of the series)
In short: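 Drosophila Schneider cells stably carrying a metallothionein-driven Gal4 DBD–ROR gamma fusion and a UAS-Photinus luciferase reporter were exposed to compound for 1 hr, then induced with copper sulfate (700 uM final) for 20 hr at ambient temperature before luminescence reading.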
% is scaled to controls: 0 for no effect and ±100 for the full control effect; potency is read from the fitted curve at half-maximal effect.

Potency, inactive:
O=C(Cn1c(=O)oc2ccccc21)Nc1cccc(Cl)c1, Cc1ccc(SCC(=O)Nc2cccc(C)c2)cc1, COc1cccc(CC(=O)Nc2ccc(S(=O)(=O)Nc3nc(C)cc(C)n3)cc2)c1, O=c1[nH]c2ccccc2c2oc(CCl)nc12, CC(C)(C)OC(=O)N/N=C\c1ccc[nH]1, COc1ccc(C2C(C#N)=C(N)Oc3cc(C)n(Cc4ccncc4)c(=O)c32)cc1 (centres undefined), COc1ccc(-c2c(C#N)c(N)nc3sc(C(=O)c4ccccc4)c(N)c23)cc1, CC(=O)NCCOc1cccc2ccccc12, COc1ccccc1NC(=O)CSc1nc(N)c(C#N)cc1C#N, CCOc1ccc(NC(=O)N(CCN(C)C)C(C)c2cccnc2)cc1 (centres undefined), COc1ccc(CN(C)S(=O)(=O)c2nnc(NC(=O)c3cccc(F)c3)s2)cc1

Potency, inconclusive:
Cc1cc2nc(-c3ccc(SCC(=O)Nc4ccc(S(=O)(=O)NC5CC5)cc4)nc3)[nH]c2cc1C 35.5 µM [inhibitor, single point], CCCc1nc2ccccc2c(C(=O)OCC(=O)Nc2cccc(S(=O)(=O)N3CCOCC3)c2)c1CC 14.1 µM [activator, single point], CCOc1ccc(N=C2SC(C(=O)Nc3ccccc3C#N)C(N)=C2C(=O)Nc2ccc(Cl)cc2)cc1 (centres undefined) 14.1 µM [activator, single point], COc1cc(/C=C/C(=O)OCC(=O)N2CCC(Cc3ccccc3)CC2)ccc1O 17.8 µM [activator, single point], Cc1ccc(S(=O)(=O)N/N=C\c2cc3c(cc2Br)OCO3)cc1 35.5 µM [activator, single point], COc1ccc(CSCCc2n[nH]c(=S)n2-c2ccccc2)cc1C 3.55 µM [inhibitor, full curve, poor fit], CCCn1c(SCC(=O)Nc2ccc3c(c2)OCCO3)nnc1-c1ccco1 11.2 µM [activator, partial curve], COc1ccc(O[C@H]2C=C[C@@H](c3ccccc3)O[C@@H]2COC(=O)CC/C(C)=N/OC[C@@H](O)[C@H]2O[C@@H]3OC(C)(C)O[C@@H]3[C@H]2O)cc1 35.5 µM [activator, single point], CC(CCc1ccco1)N(C)S(=O)(=O)c1csc(C(N)=O)c1 (centres undefined) 3.55 µM [activator, single point], CCCCOc1cc(C)nc(NCc2ccccc2)n1 35.5 µM [inhibitor, single point], Cc1ccc(/C=N/NC(=O)c2csc3c2CCCC3)cc1 35.5 µM [inhibitor, single point], CCOC(=O)C1CCCN(C(=O)c2ccc3c(c2)NC(=O)C(N2CCOCC2)S3)C1 (centres undefined) 17.8 µM [activator, single point], O=C(c1ccc(-n2ccnc2)cc1)N1CCCC(CO)(Cc2cccc(Cl)c2)C1 (centres undefined) 20 µM [activator, single point], COc1ccc(CCNC(=O)CN(C)S(=O)(=O)c2ccc(Br)s2)cc1OC 20 µM [activator, partial curve, poor fit], COc1cccc(-n2c(CCn3nc(C)c([N+](=O)[O-])c3C)n[nH]c2=S)c1 35.5 µM [inhibitor, single point], Cc1ccc(/C=C2/SC(=S)N(CCC(=O)N3CCN(c4ccccc4)CC3)C2=O)cc1 5.62 µM [inhibitor, single point], COc1ccccc1NC(=S)c1ccccc1 25.1 µM [inhibitor, single point], CCOC(=O)Cc1csc(NC(=O)COc2ccccc2)n1 10 µM [activator, partial curve], Cc1ccc(N2C(=O)c3ccc(C(=O)N4CCN(c5cccc(C)c5C)CC4)cc3C2=O)cc1 6.31 µM [activator, full curve], CC(C)(C)NC(=O)N1CCN(c2nc(-c3ccccc3)ns2)CC1 1.12 µM [activator, partial curve], CCOC(=O)c1cc(C(=O)Nc2cccc(C)c2)nn1C 11.2 µM [inhibitor, single point], COc1ccc(C(=O)NC2CCCCC2)cc1OC1CCN(C(C)C)CC1 22.4 µM [inhibitor, single point], NC(=S)N=Nc1ccc(NN=C(N)N)cc1 35.5 µM [inhibitor, single point] and 126 nM [activator, full curve, poor fit], CCOc1ccc(NC(=O)CC2C(=O)N(c3ccc(OC)cc3)C(=S)N2Cc2ccccn2)cc1 (centres undefined) 12.6 µM [activator, partial curve], COc1ccc(-c2cn[nH]c2-c2ccc(OC)cc2O)cc1 15.8 µM [inhibitor, single point], Nc1nc(Nc2ccccc2)nc(N2CCOCC2)c1[N+](=O)[O-] 11.2 µM [activator, partial curve], Cc1ccc(-n2c(P(C)(=O)O)nc3ccccc32)cc1 12.6 µM [inhibitor, single point]

Potency, active:
CC1=NN(C(=O)c2c(Br)cnn2C)C(O)(C(F)(F)F)C1 (centres undefined) 5.62 µM, C=CCn1c(-c2cccn(Cc3cccc(Cl)c3)c2=O)n[nH]c1=S 12.6 µM, CC(C)COc1ccc(CNC(=S)N/N=C/c2ccc([N+](=O)[O-])cc2)cc1 1.41 µM, COc1cccc(/C=N/NC(=O)C(=O)NCc2cccnc2)c1O 11.2 µM, CCc1cc2c(=O)n(-c3ccccc3)c(=S)[nH]c2s1 2.51 µM

Activity change, negative = inhibition, inactive:
COc1ccccc1NC(=O)c1ccccc1NC(=O)c1ccccc1C(=O)O -5.46% [at 1.91 µM]
